Source: US20130330342A1 (CENTRE NATIONAL DE LA RECHERCHE SCIENTIFIQUE CNRS, published 2013)
Results are given in words; binding and its absence hold for the method and conditions named. Binding seen in cells or lysates may run through a third protein. A result given as binding can be weak or reduced; the word gives no strength.

Target: Nef protein tagged at its C-terminal end with the HA epitope (HIV-1)
Test: co-immunoprecipitation from 293T cells (anti-HA IP, anti-c-myc blot)

B1: sdAb Nef19 (VHH)
VHH: EVQLVESGGGLVQPGGSLKLSCAASGSIFRANAMRWYRQAPGKQREWVASVISDDFTDYVDSVRGRFTISKDNAQNTVYLQMNSLKPEDTAVYYCNAQLGGVNYWGQGTQVTVSS
notes: Llama VHH from the immune library; The soluble form carries C-terminal c-myc and 6His tags and is detected with mAb 9E10; also called sdAb Nef19P; sdAb Nef19C
- binding: binds
